The values that follow come from PubChem BioAssay AID296 (DTP/NCI, 2004).

The list is a part of this screen's results and no random one: it is rich in T/C values a quarter to a half above the control, in often repeated tests (any T/C) and in doses without a T/C. Other doses and runs of a compound stand elsewhere. T/C: endpoint of the treated group in % of that of the vehicle group. Schedules are NCI's codes, read here as Q, the interval in days (D) or hours (H), X, the number of doses. Some doses were run more than once; the values are given in rising order. Some T/C values are followed by the survivors on the day toxicity was checked, most often the fifth; without a count, all were alive then. Some entries give survivors of the animals treated and no T/C: the source holds a T/C of zero for them, seemingly a mark for toxic or unscored doses. Survivors were counted at the toxicity check, usually on the fifth day, unless a day is given; later deaths do not show.

This test concerns MX-1 breast xenograft, nude mice, tumor weight T/C. The test is described as follows: NCI In Vivo Anticancer Drug Screen. Data for tumor model Human Mammary Carcinoma MX-1 Xenograft (intrarenal inoculation) in NU/NU Swiss (nude) mice. The conditions noted are these: T/C endpoint: mean tumor weight change, higher T/C = larger tumour; for T/C: evaluated on day 11. Put shortly: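 Compound dosed to mice with transplantable tumor; vehicle group as control. Endpoint survival or tumour size, reported as T/C.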
(In general: A xenograft is tissue or cells of one species grown in another, often human tumour cells in immunodeficient mice.)

Setting [1] is: dose: 600.0 mg/kg/injection, schedule: Q04DX003 (sc), vehicle: saline with Tween-80.
Where [2] appears, read: dose: 300.0 mg/kg/injection, schedule: Q04DX003 (sc), vehicle: Klucel (hydroxypropylcellulose) (HPC).
The mark [3] stands for this setting: dose: 600.0 mg/kg/injection, schedule: Q04DX003 (sc), vehicle: Klucel (hydroxypropylcellulose) (HPC).
The mark [4] stands for this setting: dose: 300.0 mg/kg/injection, schedule: Q04DX003 (sc), vehicle: saline.

As for `CN(Cc1cnc2nc(N)nc(N)c2n1)c1ccc(C(=O)N[C@@H](CCC(=O)O)C(=O)O)cc1`, the survivor count by setting is: (dose: 2.0 mg/kg/injection, schedule: Q01DX010 (sc), vehicle: sodium bicarbonate) 0 of 3 on day 11; (dose: 4.0 mg/kg/injection, schedule: Q01DX010 (sc), vehicle: sodium bicarbonate) 0 of 3 on day 11; (dose: 25.0 mg/kg/injection, schedule: Q01DX010 (sc), vehicle: sodium bicarbonate) 0 of 3 on day 11; (dose: 50.0 mg/kg/injection, schedule: Q01DX010 (sc), vehicle: sodium bicarbonate) 0 of 3 on day 11; (dose: 100.0 mg/kg/injection, schedule: Q01DX010 (sc), vehicle: sodium bicarbonate) 0 of 3 on day 11; (dose: 200.0 mg/kg/injection, schedule: Q01DX010 (sc), vehicle: sodium bicarbonate) 0 of 3 on day 11. Besides, the T/C (dose: 3.0 mg/kg/injection, schedule: Q04DX003 (sc), vehicle: sodium bicarbonate) is listed as 87, 112, 114, 128 % of control; the T/C (dose: 6.0 mg/kg/injection, schedule: Q04DX003 (sc), vehicle: sodium bicarbonate) was 40, 70, 115, 131 % of control; the T/C (dose: 12.0 mg/kg/injection, schedule: Q04DX003 (sc), vehicle: sodium bicarbonate) is given as 42, 51, 72, 118 % of control; the T/C (dose: 24.0 mg/kg/injection, schedule: Q04DX003 (sc), vehicle: sodium bicarbonate) is on record as 28, 30, 41, 82 % of control.

As to `CC1c2ccccc2CC(CCN(C)C)c2ccccc21` (stereo unspecified), the survivor count is, setting by setting: (dose: 75.0 mg/kg/injection, schedule: Q04DX003 (sc), vehicle: saline with Tween-80) 2 of 6 on day 11; (dose: 150.0 mg/kg/injection, schedule: Q04DX003 (sc), vehicle: saline with Tween-80) 0 of 6 on day 11; (dose: 300.0 mg/kg/injection, schedule: Q04DX003 (sc), vehicle: saline with Tween-80) 0 of 6 on day 11; under setting [1], 0 of 6 on day 11. Take `CC(=O)N(C)c1ccc(Nc2cc(C)[nH]c3ccc4ncnc4c23)cc1`: the survivor count (dose: 400.0 mg/kg/injection, schedule: Q04DX003 (sc), vehicle: saline with Tween-80) was 0 of 6 on day 11. Turning to `Nc1nnc[se]1`, the survivor count (dose: 1600.0 mg/kg/injection, schedule: Q04DX003 (sc), vehicle: saline with Tween-80) is given as 2 of 6 on day 11.

With `COC12C(COC(N)=O)C3=C(C(=O)C(C)=C(N)C3=O)N1CC1C2N1C` (stereo unspecified), the survivor count by setting is: (dose: 16.0 mg/kg/injection, schedule: Q01DX010 (sc), vehicle: saline) 0 of 6 on day 11 and 1 of 3 on day 11; (dose: 32.0 mg/kg/injection, schedule: Q01DX010 (sc), vehicle: saline) 0 of 3 on day 11 and 0 of 6 on day 11. Take `Cn1/c2cc/c1=C(\c1ccc(S(=O)(=O)O)cc1)c1ccc([n-]1)/C(c1ccc(S(=O)(=O)O)cc1)=c1/cc/c([nH]1)=C(\c1ccc(S(=O)(=O)O)cc1)c1ccc([n-]1)/C=2c1ccc(S(=O)(=O)O)cc1.O.O=S(=O)(O)C(F)(F)F.[Cu+2]`: the survivor count (dose: 1200.0 mg/kg/injection, schedule: Q04DX003 (sc), vehicle: Klucel (hydroxypropylcellulose) (HPC)) was 0 of 6 on day 11. On to `ClCc1ccc2ccccc2n1`, for which the T/C under setting [1] was 142 % of control [4 of 6 alive on day 11]. For `CN(C)c1ccc2c(NCCCCCCNc3ccnc4cc(N(C)C)ccc34)ccnc2c1`, the T/C (dose: 75.0 mg/kg/injection, schedule: Q04DX003 (sc), vehicle: distilled water + Tween-80 + alcohol) was 139 % of control.

For `Cn1cc(C2NC(=O)c3ccccc3N2)c2ccccc21` (stereo unspecified), the T/C by setting is: under setting [2], 135 % of control; under setting [3], 133 % of control. Regarding `COC(=O)NC1C(C)OC(OC2C/C=C(/C)C3C=CC4C(OC5CC(OC6CCC(OC7CC(O)C(OC8CCC(O)C(C)O8)C(C)O7)C(C)O6)C(OC(C)=O)C(C)O5)C(C)CC(C)C4C3(C)/C(O)=C3/C(=O)OC4(CC(C=O)=CC(O)C4/C=C\2C)C3=O)CC1(C)[N+](=O)[O-]` (stereo unspecified), where the note is “dose: 12.5 mg/kg/injection, schedule: Q04DX003 (sc), vehicle: other”, the T/C was 125 % of control. The survivor count (dose: 100.0 mg/kg/injection, schedule: Q04DX003 (sc), vehicle: other) is given as 2 of 6 on day 11. With `COc1cc(NCCCCCCCNC(C)C)c2nccc(C)c2c1`, the survivor count under setting [4] is on record as 1 of 6 on day 11. In the case of `C[C@@H]1C[C@@H]([C@H](O)CC2CC(=O)NC(=O)C2)C(=O)[C@@H](C)C1`, the survivor count under setting [4] is 1 of 6 on day 11. `CCN=C=NCCCN(C)C`: the survivor count (dose: 100.0 mg/kg/injection, schedule: Q04DX003 (sc), vehicle: saline) was 2 of 6 on day 11 and the survivor count (dose: 200.0 mg/kg/injection, schedule: Q04DX003 (sc), vehicle: saline) is given as 0 of 6 on day 11.

`N[C@@H](Cc1c[nH]c2ccccc12)C(=O)Nc1nncs1`: the T/C (dose: 150.0 mg/kg/injection, schedule: Q04DX003 (ip), vehicle: suspension in saline) is 128 % of control [5 of 6 alive on day 11]. The survivor count (dose: 1200.0 mg/kg/injection, schedule: Q04DX003 (ip), vehicle: suspension in saline) was 0 of 6 on day 11. `O=C1C=CC(=O)N1c1ccc(Cl)cc1`: the survivor count under setting [2] is reported as 0 of 6 on day 11.

For `CCCC(=O)O.CCCC(=O)O.CCCC(=O)O.CCCC(=O)O.[Rh].[Rh]`, the survivor count (dose: 16.0 mg/kg/injection, schedule: Q04DX003 (sc), vehicle: suspension in saline) is given as 3 of 6 on day 11. For `O=[N+]([O-])c1ccc(-n2[nH]nnc2=S)cc1`, the survivor count (dose: 1600.0 mg/kg/injection, schedule: Q04DX003 (sc), vehicle: Klucel (hydroxypropylcellulose) (HPC)) is reported as 1 of 6 on day 11. Regarding `CS(=O)(=O)OCCCNCCCOS(C)(=O)=O`, where the note is “dose: 150.0 mg/kg/injection, schedule: Q04DX003 (sc), vehicle: saline”, the survivor count is recorded as 0 of 3 on day 11.

Regarding `CC12CC(C(=O)O)C3(O)CC(C)(C1)CC(C)(C2)C3` (stereo unspecified) (tested in a mixture with another compound), the survivor count (dose: 2400.0 mg/kg/injection, schedule: Q04DX003 (sc), vehicle: Klucel (hydroxypropylcellulose) (HPC)) is 3 of 6 on day 11.

As for `CCOC(=O)Nc1cc2c(c(N)n1)N=C(c1ccccc1)CN2`, the survivor count (dose: 50.0 mg/kg/injection, schedule: Q04DX003 (sc), vehicle: saline with Tween-80) is on record as 1 of 6 on day 11. `CCCCCCCCCCCCCCCCCC(=O)OCC(=O)OCC(=O)[C@]1(O)Cc2c(O)c3c(c(O)c2[C@@H](OC2CC(N)C(O)C(C)O2)C1)C(=O)c1c(OC)cccc1C3=O` (stereo partly specified): the T/C (dose: 3.0 mg/kg/injection, schedule: Q01DX010 (sc), vehicle: water) is 143 % of control. Besides, under “dose: 24.0 mg/kg/injection, schedule: Q01DX010 (sc), vehicle: water”, the survivor count is given as 1 of 3 on day 11. Consider `CN1CCN(CCCN2c3ccccc3Sc3ccc(C(F)(F)F)cc32)CC1`, for which the survivor count is recorded as 1 of 3 on day 11 (dose: 200.0 mg/kg/injection, schedule: Q01DX010 (sc), vehicle: saline) and 0 of 3 on day 11 (dose: 400.0 mg/kg/injection, schedule: Q01DX010 (sc), vehicle: saline). Regarding `C1OC1CO[C@@H]1CO[C@H]2[C@@H]1OC[C@H]2OCC1CO1` (stereo partly specified), the survivor count (dose: 400.0 mg/kg/injection, schedule: Q01DX010 (sc), vehicle: saline with Tween-80) is 0 of 3 on day 11.

With `C=C(C)C(=O)OC1C/C(CO)=C\C(O)C/C(C)=C/C2OC(=O)C(=C)C21` (stereo unspecified), the survivor count (dose: 160.0 mg/kg/injection, schedule: Q04DX003 (sc), vehicle: saline + alcohol) is reported as 2 of 6 on day 11. Take `O=C(NO)c1cc(O)c(O)c(O)c1`: the T/C (dose: 1600.0 mg/kg/injection, schedule: Q04DX003 (sc), vehicle: distilled water + Tween-80) is 138 % of control.

For the molecule `O=S(=O)(O)O`, the survivor count under setting [3] is on record as 3 of 6 on day 11. Consider `CC(=O)Nc1ccc(O)c(O)c1`, for which the survivor count (dose: 2400.0 mg/kg/injection, schedule: Q04DX003 (sc), vehicle: saline with Tween-80) is reported as 3 of 6 on day 11.
